# PubChem BioAssay AID1259308, NCATS | 2017
# Purpose: 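Genes whose loss raises luciferase production in HEK293 cells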 (primary screen)
# Cell system: human HEK293 embryonic kidney cells stably expressing firefly luciferase (HEK-CMV-Luc2-Hygro)
# Reagents: single siRNA against human genes, 0.8 pmol siRNA per well
# Duration: 72 h
# Read-out: 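Luciferase light (ONE-Glo) measured on one replicate plate set and viability (CellTiter-Glo) on the other, scaled to a negative control siRNA, with robust z-scores and luciferase per cell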
# Reading the numbers: total luciferase, z-score and total luciferase, % of control: higher = more reporter protein produced; luciferase per cell, z-score: higher = more reporter output per viable cell; viable cells, % of control: higher = more viable cells
# Call rule: 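An siRNA counts as active if its total luciferase robust z-score exceeds 3; genes with two or more such siRNAs out of three were retested with fresh siRNAs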
# Calls: active = raised luciferase; inactive = no rise
# In all, the deposit lists about 59,000 reagents; this is a random part of them. About 1,510 of all reagents (2.6%) count as active. 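Calls use total luciferase alone and ignore viability, so some active siRNAs may act by altering cell number.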 Unmarked entries are inactive. Reagents against one gene are numbered here.
Gene,reagent,"total luciferase, z-score","total luciferase, % of control","luciferase per cell, z-score","viable cells, % of control"
FUT6 (fucosyltransferase 6),1,1.91,120,1.23,97
FUT6 (fucosyltransferase 6),2,-0.647,69,-0.414,86
FUT6 (fucosyltransferase 6),3,-1.19,58.1,-1.67,101
CDCP2 (CUB domain containing protein 2),1,-1.07,60.6,-0.19,71.3
CDCP2 (CUB domain containing protein 2),2,-2.64,29.5,-2.16,58.2
CDCP2 (CUB domain containing protein 2),3,0.0976,83.8,0.0704,92
ZNF546 (zinc finger protein 546),1,1.12,104,2.47,60.7
ZNF546 (zinc finger protein 546),2,0.962,101,-0.063,115
ZNF546 (zinc finger protein 546),3,-0.0738,80.4,-1.09,120
OPALIN (oligodendrocytic myelin paranodal and inner loop protein),1,-0.168,78.6,-1.07,116
OPALIN (oligodendrocytic myelin paranodal and inner loop protein),2,-1.03,61.4,-1,89.4
OPALIN (oligodendrocytic myelin paranodal and inner loop protein),3,1.05,103,0.322,105
"PCDHGB4 (protocadherin gamma subfamily B, 4)",1,0.324,88.3,-0.41,110
"PCDHGB4 (protocadherin gamma subfamily B, 4)",2,0.0183,82.3,-0.573,107
"PCDHGB4 (protocadherin gamma subfamily B, 4)",3,0.217,86.2,-0.565,112
RARRES2 (retinoic acid receptor responder 2),1,-0.594,70.1,-0.559,90.7
RARRES2 (retinoic acid receptor responder 2),2,-0.0197,81.5,0.413,81.7
RARRES2 (retinoic acid receptor responder 2),3,1.99,122,1.01,104
CHD1L (chromodomain helicase DNA binding protein 1 like),1,6.54 (active),212,3.5,94.1
CHD1L (chromodomain helicase DNA binding protein 1 like),2,0.89,99.6,0.456,98.7
CHD1L (chromodomain helicase DNA binding protein 1 like),3,0.51,92,0.216,97.1
CASC15 (cancer susceptibility 15),1,0.379,89.4,0.534,86.8
CASC15 (cancer susceptibility 15),2,-0.795,66.1,0.0253,73.3
CASC15 (cancer susceptibility 15),3,-1.53,51.5,-1.87,94.2
ZNF268 (zinc finger protein 268),1,-0.576,70.4,0.224,74.2
ZNF268 (zinc finger protein 268),2,0.149,84.9,0.107,92.2
ZNF268 (zinc finger protein 268),3,1.85,119,1.28,94.6
EZH1 (enhancer of zeste 1 polycomb repressive complex 2 subunit),1,-0.873,64.5,0.188,68.6
EZH1 (enhancer of zeste 1 polycomb repressive complex 2 subunit),2,0.0946,83.8,0.912,73.6
EZH1 (enhancer of zeste 1 polycomb repressive complex 2 subunit),3,-0.764,66.7,-0.754,90.9
HGS (hepatocyte growth factor-regulated tyrosine kinase substrate),1,-0.48,72.3,-0.179,84.8
HGS (hepatocyte growth factor-regulated tyrosine kinase substrate),2,-0.206,77.8,-0.0628,88.4
HGS (hepatocyte growth factor-regulated tyrosine kinase substrate),3,0.138,84.6,0.301,87.4
EBNA1BP2 (EBNA1 binding protein 2),1,-1.25,57.1,-0.699,76.7
EBNA1BP2 (EBNA1 binding protein 2),2,-1.47,52.6,-1.54,88.1
EBNA1BP2 (EBNA1 binding protein 2),3,-1.65,49.2,-1.84,89.2
SIRT1 (sirtuin 1),1,-0.147,79,-0.488,100
SIRT1 (sirtuin 1),2,3.32 (active),148,2.08,95.6
SIRT1 (sirtuin 1),3,1.26,107,1.29,85.2
RNF145 (ring finger protein 145),1,-0.283,76.3,0.18,81.3
RNF145 (ring finger protein 145),2,0.257,87,0.48,85.7
RNF145 (ring finger protein 145),3,-1.1,60,-0.0351,67.6
CERKL (CERK like autophagy regulator),1,1.29,108,1.04,91.3
CERKL (CERK like autophagy regulator),2,-0.12,79.5,-0.511,102
CERKL (CERK like autophagy regulator),3,1.16,105,0.0816,115
ABITRAM (actin binding transcription modulator),1,-1.12,59.7,-1.2,91.5
ABITRAM (actin binding transcription modulator),2,0.351,88.9,0.57,85.5
ABITRAM (actin binding transcription modulator),3,1.27,107,1.28,85.5
DNAJB12 (DnaJ heat shock protein family (Hsp40) member B12),1,0.723,96.3,0.321,98.9
DNAJB12 (DnaJ heat shock protein family (Hsp40) member B12),2,6.66 (active),214,4.2,79.3
DNAJB12 (DnaJ heat shock protein family (Hsp40) member B12),3,1.8,118,1.25,94.6
CHN1 (chimerin 1),1,-0.0994,79.9,-0.319,97.1
CHN1 (chimerin 1),2,-0.574,70.5,-1.52,118
CHN1 (chimerin 1),3,3.14 (active),144,3.02,72.8
CNPY1 (canopy FGF signaling regulator 1),1,1.3,108,1.57,79.6
CNPY1 (canopy FGF signaling regulator 1),2,-0.567,70.6,-1.09,105
CNPY1 (canopy FGF signaling regulator 1),3,-1.16,58.8,-1.08,87.3
KHDC1 (KH domain containing 1),1,0.0465,82.8,-0.158,96.5
KHDC1 (KH domain containing 1),2,-0.778,66.4,-1.18,101
KHDC1 (KH domain containing 1),3,1.11,104,0.195,110
GMIP (GEM interacting protein),1,0.228,86.4,0.285,89.6
GMIP (GEM interacting protein),2,0.0642,83.2,-0.24,99
GMIP (GEM interacting protein),3,-0.562,70.7,-0.433,88.6
OCSTAMP (osteoclast stimulatory transmembrane protein),1,0.902,99.8,0.289,103
OCSTAMP (osteoclast stimulatory transmembrane protein),2,0.675,95.3,0.937,83.2
OCSTAMP (osteoclast stimulatory transmembrane protein),3,0.585,93.5,0.164,100
EML2 (EMAP like 2),1,1.63,114,0.906,101
EML2 (EMAP like 2),2,0.368,89.2,1.01,76.3
EML2 (EMAP like 2),3,-0.333,75.3,-0.959,108
ITCH (itchy E3 ubiquitin protein ligase),1,-0.771,66.6,-0.59,86.9
ITCH (itchy E3 ubiquitin protein ligase),2,0.376,89.4,0.299,92.3
ITCH (itchy E3 ubiquitin protein ligase),3,-1.25,56.9,-1.9,105
RPRD2 (regulation of nuclear pre-mRNA domain containing 2),1,4.01 (active),162,3.1,79.8
RPRD2 (regulation of nuclear pre-mRNA domain containing 2),2,-0.705,67.9,0.733,62.5
RPRD2 (regulation of nuclear pre-mRNA domain containing 2),3,-0.701,67.9,-0.037,76.7

Part of the list above in another layout:
Gene	reagent	total luciferase, z-score	total luciferase, % of control	luciferase per cell, z-score	viable cells, % of control
CDCP2 (CUB domain containing protein 2)	3	0.0976	83.8	0.0704	92
ZNF546 (zinc finger protein 546)	1	1.12	104	2.47	60.7
ZNF546 (zinc finger protein 546)	2	0.962	101	-0.063	115
